Binding data for one molecule are collected here from paper PMC9852426.

Protein sequences, listed by entry. Tags and fused reporters are not part of them. Lines headed by an entry give the natural chain unless they say otherwise; changes in a name come on top. Chains listed by the source or under a name are the forms on record and can include a tag or linker. Residues count along the entry.
plexin-A2 (full length, V5 tagged), re-expressed in U87MG plexin-A2 knock-out clone 54.3 cells (P70207, residues 35-1894): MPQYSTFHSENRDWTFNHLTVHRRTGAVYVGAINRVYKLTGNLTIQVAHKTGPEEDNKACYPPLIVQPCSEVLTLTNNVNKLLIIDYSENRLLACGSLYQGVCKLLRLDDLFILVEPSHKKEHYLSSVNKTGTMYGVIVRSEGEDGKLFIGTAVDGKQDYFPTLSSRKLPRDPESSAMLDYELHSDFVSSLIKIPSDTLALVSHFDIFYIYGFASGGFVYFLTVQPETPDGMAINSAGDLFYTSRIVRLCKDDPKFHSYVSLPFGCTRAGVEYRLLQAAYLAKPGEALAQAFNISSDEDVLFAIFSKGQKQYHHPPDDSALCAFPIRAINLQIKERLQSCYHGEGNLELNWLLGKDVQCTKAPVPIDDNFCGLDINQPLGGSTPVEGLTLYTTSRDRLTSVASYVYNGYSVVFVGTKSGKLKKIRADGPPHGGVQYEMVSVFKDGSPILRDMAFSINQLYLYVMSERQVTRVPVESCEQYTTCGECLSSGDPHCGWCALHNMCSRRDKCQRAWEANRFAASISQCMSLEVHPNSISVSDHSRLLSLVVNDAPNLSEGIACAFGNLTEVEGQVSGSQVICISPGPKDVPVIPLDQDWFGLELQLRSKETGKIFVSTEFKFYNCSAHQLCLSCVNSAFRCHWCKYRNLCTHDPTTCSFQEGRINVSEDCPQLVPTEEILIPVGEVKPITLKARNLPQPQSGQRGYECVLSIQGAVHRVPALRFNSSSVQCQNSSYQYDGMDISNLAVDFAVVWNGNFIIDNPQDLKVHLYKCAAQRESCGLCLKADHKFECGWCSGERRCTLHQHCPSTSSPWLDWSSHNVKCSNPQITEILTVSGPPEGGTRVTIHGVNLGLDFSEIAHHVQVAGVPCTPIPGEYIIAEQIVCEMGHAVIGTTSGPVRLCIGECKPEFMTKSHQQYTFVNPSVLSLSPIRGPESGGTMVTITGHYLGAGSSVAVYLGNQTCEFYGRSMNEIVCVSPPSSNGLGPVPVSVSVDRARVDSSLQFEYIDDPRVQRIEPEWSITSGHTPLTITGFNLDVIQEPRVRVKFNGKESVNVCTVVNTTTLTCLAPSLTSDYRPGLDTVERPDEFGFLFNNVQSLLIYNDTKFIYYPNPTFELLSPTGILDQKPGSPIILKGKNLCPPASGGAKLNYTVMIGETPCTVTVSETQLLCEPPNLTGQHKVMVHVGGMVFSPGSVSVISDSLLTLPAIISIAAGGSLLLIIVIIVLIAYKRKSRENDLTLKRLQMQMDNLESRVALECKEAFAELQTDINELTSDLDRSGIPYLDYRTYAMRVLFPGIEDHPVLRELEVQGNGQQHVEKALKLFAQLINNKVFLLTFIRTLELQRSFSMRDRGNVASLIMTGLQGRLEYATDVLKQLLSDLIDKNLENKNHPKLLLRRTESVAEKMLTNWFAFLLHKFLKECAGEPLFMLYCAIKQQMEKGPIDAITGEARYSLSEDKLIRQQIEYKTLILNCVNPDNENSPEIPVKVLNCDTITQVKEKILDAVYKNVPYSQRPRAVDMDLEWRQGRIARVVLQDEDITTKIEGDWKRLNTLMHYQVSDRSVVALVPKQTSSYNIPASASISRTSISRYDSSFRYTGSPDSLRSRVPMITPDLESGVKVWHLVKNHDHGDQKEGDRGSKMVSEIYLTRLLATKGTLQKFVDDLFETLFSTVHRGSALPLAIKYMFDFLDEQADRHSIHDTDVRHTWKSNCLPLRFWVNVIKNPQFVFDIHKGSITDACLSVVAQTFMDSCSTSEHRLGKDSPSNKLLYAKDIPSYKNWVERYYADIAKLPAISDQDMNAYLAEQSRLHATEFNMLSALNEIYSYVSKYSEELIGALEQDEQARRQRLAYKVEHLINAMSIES
plexin-A2 containing a point mutation in the semaphorin binding site (PlexA2/A396E) (P70207, form named): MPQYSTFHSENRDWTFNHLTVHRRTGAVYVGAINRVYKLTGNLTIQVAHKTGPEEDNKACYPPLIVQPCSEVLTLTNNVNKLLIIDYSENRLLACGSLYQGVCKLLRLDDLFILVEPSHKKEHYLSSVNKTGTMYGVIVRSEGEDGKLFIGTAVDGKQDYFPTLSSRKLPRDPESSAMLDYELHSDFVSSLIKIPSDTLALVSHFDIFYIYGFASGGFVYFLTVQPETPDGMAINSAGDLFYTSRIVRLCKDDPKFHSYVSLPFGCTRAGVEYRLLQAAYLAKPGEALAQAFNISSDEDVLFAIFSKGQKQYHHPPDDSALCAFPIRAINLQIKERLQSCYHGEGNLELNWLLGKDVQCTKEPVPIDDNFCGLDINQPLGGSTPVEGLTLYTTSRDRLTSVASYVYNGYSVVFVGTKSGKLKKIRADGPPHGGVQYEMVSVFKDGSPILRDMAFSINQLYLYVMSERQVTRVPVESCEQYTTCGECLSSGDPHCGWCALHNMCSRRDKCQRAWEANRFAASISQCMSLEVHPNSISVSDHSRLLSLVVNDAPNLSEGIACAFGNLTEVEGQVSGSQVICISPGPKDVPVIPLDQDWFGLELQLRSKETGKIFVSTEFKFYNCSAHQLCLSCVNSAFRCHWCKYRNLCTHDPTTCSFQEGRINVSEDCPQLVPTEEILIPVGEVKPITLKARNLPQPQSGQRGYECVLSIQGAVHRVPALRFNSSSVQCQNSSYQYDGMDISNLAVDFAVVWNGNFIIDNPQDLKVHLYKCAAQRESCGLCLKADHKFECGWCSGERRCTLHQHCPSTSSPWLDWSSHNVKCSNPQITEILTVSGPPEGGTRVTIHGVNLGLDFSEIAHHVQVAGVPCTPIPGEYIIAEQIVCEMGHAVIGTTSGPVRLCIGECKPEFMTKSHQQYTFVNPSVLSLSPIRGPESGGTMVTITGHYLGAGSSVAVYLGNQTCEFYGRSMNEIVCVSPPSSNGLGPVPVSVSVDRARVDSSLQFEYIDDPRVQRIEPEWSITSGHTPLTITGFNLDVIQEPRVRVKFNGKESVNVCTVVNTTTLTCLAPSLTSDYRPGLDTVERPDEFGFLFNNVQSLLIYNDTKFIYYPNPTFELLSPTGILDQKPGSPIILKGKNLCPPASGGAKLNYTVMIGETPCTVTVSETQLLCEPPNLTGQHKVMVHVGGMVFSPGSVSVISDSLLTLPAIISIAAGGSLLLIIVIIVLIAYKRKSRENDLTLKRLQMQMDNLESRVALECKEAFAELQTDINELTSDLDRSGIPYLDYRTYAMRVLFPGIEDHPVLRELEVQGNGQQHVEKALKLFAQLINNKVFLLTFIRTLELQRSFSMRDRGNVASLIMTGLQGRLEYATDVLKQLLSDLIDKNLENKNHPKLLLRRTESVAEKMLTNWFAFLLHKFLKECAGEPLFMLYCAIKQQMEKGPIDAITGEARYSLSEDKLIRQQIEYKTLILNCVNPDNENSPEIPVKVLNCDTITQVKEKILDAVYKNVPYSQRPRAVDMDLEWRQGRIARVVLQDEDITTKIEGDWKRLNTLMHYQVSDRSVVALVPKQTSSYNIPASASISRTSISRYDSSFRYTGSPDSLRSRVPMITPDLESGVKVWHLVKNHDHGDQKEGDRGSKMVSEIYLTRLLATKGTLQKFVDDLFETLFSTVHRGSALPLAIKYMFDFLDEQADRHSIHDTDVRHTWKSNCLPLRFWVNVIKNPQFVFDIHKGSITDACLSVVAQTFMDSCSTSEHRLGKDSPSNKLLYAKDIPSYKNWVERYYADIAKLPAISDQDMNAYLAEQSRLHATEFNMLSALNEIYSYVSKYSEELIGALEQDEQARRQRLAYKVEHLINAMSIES

These are yes or no findings as the source states them, for the method shown. Some results given as binding are weak or reduced against the parent protein; the word gives no strength. Sequences can lack the tags named with a protein.

In test [1] the target is plexin-A2 (full length, V5 tagged), re-expressed in U87MG plexin-A2 knock-out clone 54.3 cells (UniProt P70207). Description: alkaline phosphatase binding assay on cells; plexin-A2 or PlexA2/A396E on U87MG KO clone 54.3 cells; 20-fold concentrated sema6A-Fc conditioned medium with AP-conjugated goat anti-human IgG (1/5000), 45 min at 4 °C; binding buffer HBSS with 0.5% BSA, 0.1% NaN3, 5 mM CaCl2, 1 mM MgCl2, 20 mM HEPES pH 7.0; BCIP/NBT staining, stained cell area measured.

In test [2] the target is plexin-A2 containing a point mutation in the semaphorin binding site (PlexA2/A396E) (UniProt P70207). Description: condition: 20-fold concentrated sema6A-Fc conditioned medium; alkaline phosphatase binding assay on cells; plexin-A2 or PlexA2/A396E on U87MG KO clone 54.3 cells; 20-fold concentrated sema6A-Fc conditioned medium with AP-conjugated goat anti-human IgG (1/5000), 45 min at 4 °C; binding buffer HBSS with 0.5% BSA, 0.1% NaN3, 5 mM CaCl2, 1 mM MgCl2, 20 mM HEPES pH 7.0; BCIP/NBT staining, stained cell area measured.

B1: recombinant sema6A-fc fusion protein (extra-cellular region of sema6A fused to the human Fc) (Fc fusion, UniProt O35464 19-649)
chain: GFPEDSEPISISHGNYTKQYPVFVGHKPGRNTTQRHRLDIQMIMIMNRTLYVAARDHIYTVDIDTSHTEEIYCSKKLTWKSRQADVDTCRMKGKHKDECHNFIKVLLKKNDDTLFVCGTNAFNPSCRNYRVDTLETFGDEFSGMARCPYDAKHANIALFADGKLYSATVTDFLAIDAVIYRSLGDSPTLRTVKHDSKWLKEPYFVQAVDYGDYIYFFFREIAVEYNTMGKVVFPRVAQVCKNDMGGSQRVLEKQWTSFLKARLNCSVPGDSHFYFNILQAVTDVIRINGRDVVLATFSTPYNSIPGSAVCAYDMLDIANVFTGRFKEQKSPDSTWTPVPDERVPKPRPGCCAGSSSLEKYATSNEFPDDTLNFIKTHPLMDEAVPSIINRPWFLRTMVRYRLTKIAVDNAAGPYQNHTVVFLGSEKGIILKFLARIGSSGFLNGSLFLEEMNVYNPEKCSYDGVEDKRIMGMQLDRASGSLYVAFSTCVIKVPLGRCERHGKCKKTCIASRDPYCGWVRESGSCAHLSPLSRLTFEQDIERGNTDGLGDCHNSFVALNGHASSLYPSTTTSDSASRDGYESRGGMLDWNDLLEAPGSTDPLGAVSSHNHQDKKGVIRESYLKSNDQLVPVT
On to B1, for which the binding entry is recorded as “binds” in test [1] and “no binding” in test [2].
